# Values quoted from earlier work, collected in Sander's compilation of Henry's law constants (doi:10.1016/s0016-7037(99)00330-0).
# Assay: Henry solubility constant Hcp at 298.15 K (mol/(m3 Pa))
# Conditions: reference: Plyasunov and Shock (2000); cited value
compound,measurement,value
"C=CCC=C [1,4-pentadiene]",Henry solubility constant Hcp,8e-05
